# Experimental data from PMC12040169 (PLOS Biology, 2025).
# The list shows a part of the results.
# System: T1, CTL2-GFP (C. trachomatis L2/434/Bu, GFP-expressing)
# T1 construct: L2/434/Bu, GFP-expressing
# Parameters: species or system HeLa; Intracellular C. trachomatis growth in HeLa cells, bulk GFP fluorescence relative to DMSO
# Settings: bulk GFP, single well; 28.5 h, 10 µM; inhibitor
row,Compound,% of control remaining [%]
1,CCc1c(C)nc(C)nc1N1CCCn2nc(C(O)C3CC3)cc2C1 (stereo not shown) [CBK306778],87.827
2,CCN(CC(=O)NC(C)(C)C)Cc1nc(-c2cccc(Br)c2)no1 [CBK304230],92.4997
3,CCC(C)(Sc1nc(C)ccc1C#N)C(=O)O (stereo not shown) [CBK287098],101.971
4,CN(CC(=O)O)C(=O)OCc1ccccc1 [CBK012752],111.627
5,CCCCC(c1cccnc1)N(C)C(=O)CCc1ccnn1C (stereo not shown) [CBK306664],90.7649
6,COc1cc(-c2cnc(N)c(NCC(C)(C)CO)n2)cc(OC)c1OC [CBK063523],106.753
7,O=C(Nc1sc2c(c1C(=O)NCc1ccco1)CCCC2)c1sc2ccccc2c1Cl [CBK265086],100
8,O=C(Nc1ccncc1)c1snnc1-c1ccccc1 [CBK287982],131.294
9,COCc1cc2n[nH]c(=O)n2c(-c2ccccc2)n1 [CBK288507],94.1774
10,CCNS(=O)(=O)c1ccc(Cn2nc(NC(=O)C3COc4ccccc4O3)c3ccccc32)cc1 (stereo not shown) [CBK061613],75.8
11,Cn1c([C@H]2CCN(C(=O)c3cnccn3)C2)nc2ccccc21 [CBK289416],115.896
12,COc1cccc(CNc2ccc(C3c4ccsc4CCN3C(C)=O)cc2)c1 (stereo not shown) [CBK286443],106.826
13,CCn1cc(CN2CCCCCC2c2cc(C)on2)c(C)n1 (stereo not shown) [CBK282140],146.278
14,CCCn1c(SC(C)C(=O)N2CCOCC2)nc2ccc(Br)cc2c1=O (stereo not shown) [CBK305020],120.628
15,CC(C(=O)NCCC1=CCCCC1)N1CCOC(Cn2cccn2)C1 (stereo not shown) [CBK305319],119.134
16,O=C(c1ccc(S(=O)(=O)c2ccc(F)cc2)c([N+](=O)[O-])c1)N1CCCCCC1 [CBK294453],89.5223
17,Cc1ccn2cc(C(=O)NCCSc3nccn3C)nc2c1 [CBK281417],95.7187
18,CCC1CCc2c(sc(NC(=O)c3cnccn3)c2C(N)=O)C1 (stereo not shown) [CBK262649],111.866
19,CNS(=O)(=O)c1cccc(C(=O)N(C)Cc2ccsc2)c1 [CBK303993],89.8593
20,COc1ccccc1-c1cnc(N)c(N[C@@H](C)c2ccccc2)n1 [CBK063721],140.072
21,O=C(c1ccc2ccccc2n1)N1CCc2ccccc21 [CBK200404],134.879
22,CCc1nnc(NS(=O)(=O)c2ccc(NCc3cc(Cl)cc(Cl)c3O)cc2)s1 [CBK126494],101.905
23,Cc1ccc2cn[nH]c2c1 [CBK016109],88.0748
24,CCOc1cc(C(c2c[nH]c3ccccc23)c2c[nH]c3ccccc23)ccc1OCC(=O)O [CBK264450],121.26
25,CCc1noc(C)c1C(=O)NCCN1CC(C)CC(C)C1 (stereo not shown) [CBK282081],88.0769
26,Cc1cc(C)nc(Nc2n[nH]c(-c3cccc4ccccc34)n2)n1 [CBK266451],197.151
27,C=CCNC(=O)CN1CCC(c2ccc(OC)cc2)CC1 [CBK283560],91.8419

# An excerpt of these results, bar-delimited:
row | Compound | % of control remaining [%]
6 | COc1cc(-c2cnc(N)c(NCC(C)(C)CO)n2)cc(OC)c1OC [CBK063523] | 106.753
7 | O=C(Nc1sc2c(c1C(=O)NCc1ccco1)CCCC2)c1sc2ccccc2c1Cl [CBK265086] | 100
8 | O=C(Nc1ccncc1)c1snnc1-c1ccccc1 [CBK287982] | 131.294
9 | COCc1cc2n[nH]c(=O)n2c(-c2ccccc2)n1 [CBK288507] | 94.1774
10 | CCNS(=O)(=O)c1ccc(Cn2nc(NC(=O)C3COc4ccccc4O3)c3ccccc32)cc1 (stereo not shown) [CBK061613] | 75.8
11 | Cn1c([C@H]2CCN(C(=O)c3cnccn3)C2)nc2ccccc21 [CBK289416] | 115.896

# (next part)

row,Compound,% of control remaining [%]
1,CCCC/C=C/c1ccc(Nc2ccc(N3CCOCC3)cc2)nc1 [CBK036886],95.5607
2,O=C(N[C@H]1CO[C@H]2[C@@H]1OC[C@@H]2n1cc(-c2ccccn2)nn1)c1ccc(C(F)(F)F)cc1 [CBK289507],99.8837
3,COc1ccc(C)cc1NC(=O)CN(c1ccccc1)S(=O)(=O)c1ccc(F)cc1 [CBK268223],94.7105
4,CN(C)c1ccc(-c2nccnc2NCC(O)COc2ccccc2)cc1 (stereo not shown) [CBK036928],129.991
5,C[C@]12CN(Cc3ccccc3)C[C@H]1NC(=O)c1ccccc1C2=O [CBK284703],139.886
6,COc1ccc(NCc2cc(=O)oc3cc4c(cc23)CCC4)cn1 [CBK235362],100
7,CCOC(=O)CC(C)NS(=O)(=O)c1ccc(OC(F)(F)F)cc1 (stereo not shown) [CBK044954],136.568
8,COC(=O)[C@@H]1Cc2ncn(C(C)C)c2CN1C(=O)c1ccccc1 [CBK288987],136.975
9,Cc1nn(C)c(C)c1CCC(=O)NCC1CN(c2ccccc2)CCO1 (stereo not shown) [CBK307199],144.009
10,Cc1cc(COc2ccnc(N3CCCN(CC4CC4)CC3)n2)no1 [CBK084073],122.115
11,Cc1nn(CC(=O)N(C)CCCc2nccn2C)c(=O)c2ccccc12 [CBK307087],138.845
12,Cc1ccc(NC(=O)c2cc(NC(=O)C3CC=CCC3C(=O)O)ccc2N2CCOCC2)cc1Cl (stereo not shown) [CBK265323],106.831
13,Cn1nc(C2CCN(C(=O)C3CCCCC3)CC2)c2cccnc21 [CBK284897],122.689
14,Cc1ccc(C)c(-c2nc(-c3cccnc3)no2)c1 [CBK288018],90.6036
15,Cc1nnc(N/N=C/c2ccc(OC3CCCC3)cc2)nc1O [CBK058025],104.364
16,O=C(CO)N1CC2(CCN(CC3COc4ccccc4O3)CC2)c2ccccc21 (stereo not shown) [CBK143951],125.922
17,COc1cc(/C=C2\SC(=N)NC2=O)cc(Br)c1OS(=O)(=O)c1ccc(C)cc1 [CBK263609],125.715
18,CN(C)c1ncc(Br)cc1C(=O)NCCNS(=O)(=O)c1ccccc1 [CBK076504],108.169
19,COc1cccc(C(=O)N2CCC(NC(=O)c3cc(F)ccc3F)CC2)c1 [CBK155026],105.867
20,CC(C)(C)CN1CCC(Oc2nccnc2OCc2ccc(Br)cc2F)CC1 [CBK161946],123.67
21,O=C(N/N=C\C=C\c1ccco1)c1ccc([N+](=O)[O-])cc1 [CBK261961],101.272
22,Cc1c(C)n(Cc2cccnc2)c2ncn(C3CCCCCC3)c(=N)c12 [CBK287932],114.35
23,O=c1cc(N2CCN(CC3(O)CCNC3)CC2)c(-c2ccccc2)n[nH]1 (stereo not shown) [CBK307088],152.51
24,c1ccc(Sc2nccnc2N2CCCC2)nc1 [CBK093734],100
25,CNS(=O)(=O)c1cc(C(=O)O)c(OC)cc1OC [CBK110325],124.905
26,CCOC(=O)c1cnn(C2CCCN(Cc3cc(C#N)cs3)C2)c1 (stereo not shown) [CBK305399],135.388
27,CC(C(=O)O)N1C(=O)c2ccccc2C1c1c[nH]c2ccccc12 (stereo not shown) [CBK286576],108.599

row,Compound,% of control remaining [%]
1,Cc1nc(C2CCCC2)cc([C@H]2CN3CC[C@H]2C[C@@H]3CNS(C)(=O)=O)n1 [CBK289121],128.431
2,CC1CCC/C(=N\NC(=O)C2C3CCCCC32)C1 (stereo not shown) [CBK025750],102.389
3,Cc1ccccc1NS(=O)(=O)c1cc(C(=O)Nc2ccc(S(=O)(=O)N3CCCC3)cc2)ccc1C [CBK269004],117.896
4,O=C(O)c1ccccc1SC1CCc2ccccc2NC1=O (stereo not shown) [CBK286683],164.217
5,O=C(N[C@H]1CO[C@H]2[C@@H]1OC[C@@H]2Nc1nccc(-c2cccs2)n1)C1CC1 [CBK289517],116.712
6,Cc1ccccc1C(=O)N/N=C/c1ccc(Sc2nnnn2-c2ccccc2)o1 [CBK263259],116.464
7,Fc1ccc(OCc2nnn[nH]2)c(F)c1 [CBK269473],128.296
8,O=C(O)c1ccc(C(=O)O)c(-c2ccccc2)c1 [CBK261102],108.329
9,Cc1nn(C)cc1-c1cncn1CCCOc1ccc(Cl)cc1 [CBK281787],109.349
10,CCCC(=O)Nc1ccc(C(=O)Nc2ccccc2C(=O)O)cc1 [CBK265111],167.372
11,NC(=O)N1CCC(C(=O)N2CC3(CCCC3)c3c(F)cccc32)CC1 [CBK304973],84.3193
12,Cc1ccc(C#N)c(S(=O)(=O)Nc2cc(N3C[C@@H](C)N[C@@H](C)C3)c3occc3c2)c1 [CBK034756C],88.2886
13,COc1ccc(N2CCN(c3cncc(-c4cc(OC)c(OC)c(OC)c4)n3)CC2)cc1OC [CBK037988],144.058
14,CN1CCN(c2ccc(-c3cncc(N4CCN(c5ccncc5)CC4)n3)cn2)CC1 [CBK065144],174.547
15,O=C(O)c1ccc2c(c1)C(=O)N(c1ccc(-c3ccnc(-c4ccc(N5C(=O)c6ccc(C(=O)O)cc6C5=O)cc4)n3)cc1)C2=O [CBK261192],108.806
16,CC(=O)Nc1cccc(-c2cnc3[nH]c(=O)n([C@@H](C)c4ccccc4)c3n2)c1 [CBK064159],79.0887
17,COc1ccc(-c2cc(C(=O)NCC(=O)O)c(C)o2)cc1OC [CBK287130],126.496
18,c1cc(CNc2nccnc2-c2ccsc2)ccn1 [CBK037513],122.562
19,CC(C)c1ccc(S(=O)(=O)Nc2ccc(O)c(Sc3nc[nH]n3)c2)cc1 [CBK266861],154.291
20,CCc1nn(CCN2CCCC2)c(=O)c2cc3sc(C)cc3n12 [CBK284098],158.306
21,Fc1ccccc1-c1nccnc1NCc1cccs1 [CBK038088],235.217
22,CS(=O)(=O)Nc1ccc(CC#N)cc1 [CBK038145],121.861
23,CN(C(=O)C1CC1)C1CCN(c2ncnc3ccccc23)CC1 [CBK304946],96.593
24,O=C(O)c1ccccc1NC(=O)N1CCc2[nH]cnc2C1c1cccc(F)c1 (stereo not shown) [CBK286824],143.193
25,c1cc(CCNc2cc(-c3ccc4c(c3)OCO4)ncn2)ccn1 [CBK037689],112.726
